Measured values: publication PMC7810988, “Inositol pyrophosphates promote the interaction of SPX domains with the coiled-coil motif of PHR transcription factors to regulate plant phosphate homeostasis” (Nature Communications, 2021)
Positions count from the first letter of the chain named. Results are given in words; binding and its absence hold for the method and conditions named.

Chains of the proteins cited; added tags and fusions are not shown. Lines headed by an entry give the natural chain unless they say otherwise; changes in a name come on top. A line that says so, or that is headed by a name, gives the form on record, which may keep a tag or linker. Residues count along the entry.
AtPHR1^226–360 fused to the Gal4-activation domain (Q94CL7, residues 226-360): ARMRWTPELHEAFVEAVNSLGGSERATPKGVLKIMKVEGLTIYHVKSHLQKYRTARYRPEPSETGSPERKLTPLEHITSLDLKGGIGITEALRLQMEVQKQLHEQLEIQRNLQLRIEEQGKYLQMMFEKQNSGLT
AtPHR1^280–360 Olig1 (Q94CL7, form named): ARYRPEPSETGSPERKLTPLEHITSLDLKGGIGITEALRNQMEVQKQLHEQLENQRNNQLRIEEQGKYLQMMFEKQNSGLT
AtPHR1^280–360 Olig2 (Q94CL7, form named): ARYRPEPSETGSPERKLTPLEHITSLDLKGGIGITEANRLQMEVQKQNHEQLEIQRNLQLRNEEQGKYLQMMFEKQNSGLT
AtPHR1^(222-358 Olig1) (Q94CL7, form named): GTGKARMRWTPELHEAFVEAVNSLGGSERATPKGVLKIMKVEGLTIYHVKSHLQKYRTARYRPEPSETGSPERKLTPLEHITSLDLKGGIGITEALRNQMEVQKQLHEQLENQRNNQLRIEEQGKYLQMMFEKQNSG
AtPHR1^(222-358 Olig2) (Q94CL7, form named): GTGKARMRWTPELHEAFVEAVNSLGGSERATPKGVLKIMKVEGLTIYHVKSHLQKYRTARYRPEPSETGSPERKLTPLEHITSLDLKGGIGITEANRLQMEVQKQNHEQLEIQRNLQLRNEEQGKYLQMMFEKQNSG

Experiments:
[1] = target: T1, AtSPX1^KSC (yeast two-hybrid) (Arabidopsis thaliana) (UniProt Q8LBH4); test: two-hybrid; AtPHR1 constructs fused to the Gal4-AD (prey), AtSPX proteins fused to the LexA-BD (bait); spotting dilution on SD medium lacking histidine (Fig. 3b: with 10 mM 3-AT), 30 °C, 3 days
T1 sequence: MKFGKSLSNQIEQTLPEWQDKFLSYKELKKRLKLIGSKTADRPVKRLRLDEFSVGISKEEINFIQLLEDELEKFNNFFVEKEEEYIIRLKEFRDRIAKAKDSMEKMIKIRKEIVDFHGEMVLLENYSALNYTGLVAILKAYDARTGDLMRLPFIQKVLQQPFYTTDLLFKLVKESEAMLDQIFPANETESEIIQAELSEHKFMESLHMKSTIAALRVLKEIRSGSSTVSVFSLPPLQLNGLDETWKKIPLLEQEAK

[2] = target: T2, AtSPX1^PBC (yeast two-hybrid) (Arabidopsis thaliana) (UniProt Q8LBH4); test: as above
T2 sequence: T1 sequence with Y25A, K29A, A136K, K139A, A140K, A143K

[3] = target: AtPHR1^280–360 Olig1 (Arabidopsis thaliana) (UniProt Q94CL7); test: SEC-RALS; size-exclusion chromatography with right-angle light scattering; 50 µL of 2–10 mg/mL protein, 20 mM HEPES pH 7.5, 150 mM NaCl, Superdex 200 increase 10/300 GL, 25 °C; both purified
[4] = target: AtPHR1^280–360 Olig2 (Arabidopsis thaliana) (UniProt Q94CL7); test: as above
[5] = target: AtPHR1^(222-358 Olig1) (Arabidopsis thaliana) (UniProt Q94CL7); test: as above
[6] = target: AtPHR1^(222-358 Olig2) (Arabidopsis thaliana) (UniProt Q94CL7); test: as above

In the case of “AtPHR1^226–360 fused to the Gal4-activation domain (from UniProt Q94CL7 226-360) (domain or fragment)”, the binding [1] was “no binding” and the binding [2] was “no binding”.
With “AtPHR1^280–360 Olig1 (from UniProt Q94CL7 280-360) (domain or fragment)” the binding [3] was “no binding (tested: 2–10 mg/mL)”.
With “AtPHR1^280–360 Olig2 (from UniProt Q94CL7 280-360) (domain or fragment)” the binding [4] was “no binding (tested: 2–10 mg/mL)”.
“AtPHR1^(222-358 Olig1) (from UniProt Q94CL7 222-358) (domain or fragment)” was tested, and the binding [5] was “no binding (tested: 2–10 mg/mL)”.
“AtPHR1^(222-358 Olig2) (from UniProt Q94CL7 222-358) (domain or fragment)” was tested, and the binding [6] was “no binding (tested: 2–10 mg/mL)”.
